Experimental data reported in patent publication US20130171163A1, “Inhibition of LAR Phosphatase to Enhance Therapeutic Angiogenesis” (priority 2010, published 2013).
These are yes or no findings as the source states them, for the method shown. In cells and extracts the contact can be indirect. Some results given as binding are weak or reduced against the parent protein; the word gives no strength.

By UniProt entry, the sequences of proteins in these tests, tags left out. Residues count along the entry.
UniProt P08069, residues 741-1367: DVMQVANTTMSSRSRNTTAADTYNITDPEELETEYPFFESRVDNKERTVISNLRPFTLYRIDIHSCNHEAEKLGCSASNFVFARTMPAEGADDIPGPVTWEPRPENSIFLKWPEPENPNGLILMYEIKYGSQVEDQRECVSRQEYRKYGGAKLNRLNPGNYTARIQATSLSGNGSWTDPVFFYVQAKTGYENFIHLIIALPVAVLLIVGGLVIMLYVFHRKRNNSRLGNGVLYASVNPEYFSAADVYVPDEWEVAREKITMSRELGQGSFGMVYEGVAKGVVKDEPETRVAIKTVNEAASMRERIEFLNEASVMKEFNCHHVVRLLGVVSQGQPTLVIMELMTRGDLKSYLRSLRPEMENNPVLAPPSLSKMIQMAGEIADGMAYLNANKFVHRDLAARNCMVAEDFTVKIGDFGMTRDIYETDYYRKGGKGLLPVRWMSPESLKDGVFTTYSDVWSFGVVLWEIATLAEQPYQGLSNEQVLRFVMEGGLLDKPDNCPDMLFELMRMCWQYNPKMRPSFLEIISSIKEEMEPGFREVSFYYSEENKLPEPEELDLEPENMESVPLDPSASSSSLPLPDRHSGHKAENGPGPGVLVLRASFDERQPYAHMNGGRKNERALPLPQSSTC
UniProt P10586, residues 30-1907: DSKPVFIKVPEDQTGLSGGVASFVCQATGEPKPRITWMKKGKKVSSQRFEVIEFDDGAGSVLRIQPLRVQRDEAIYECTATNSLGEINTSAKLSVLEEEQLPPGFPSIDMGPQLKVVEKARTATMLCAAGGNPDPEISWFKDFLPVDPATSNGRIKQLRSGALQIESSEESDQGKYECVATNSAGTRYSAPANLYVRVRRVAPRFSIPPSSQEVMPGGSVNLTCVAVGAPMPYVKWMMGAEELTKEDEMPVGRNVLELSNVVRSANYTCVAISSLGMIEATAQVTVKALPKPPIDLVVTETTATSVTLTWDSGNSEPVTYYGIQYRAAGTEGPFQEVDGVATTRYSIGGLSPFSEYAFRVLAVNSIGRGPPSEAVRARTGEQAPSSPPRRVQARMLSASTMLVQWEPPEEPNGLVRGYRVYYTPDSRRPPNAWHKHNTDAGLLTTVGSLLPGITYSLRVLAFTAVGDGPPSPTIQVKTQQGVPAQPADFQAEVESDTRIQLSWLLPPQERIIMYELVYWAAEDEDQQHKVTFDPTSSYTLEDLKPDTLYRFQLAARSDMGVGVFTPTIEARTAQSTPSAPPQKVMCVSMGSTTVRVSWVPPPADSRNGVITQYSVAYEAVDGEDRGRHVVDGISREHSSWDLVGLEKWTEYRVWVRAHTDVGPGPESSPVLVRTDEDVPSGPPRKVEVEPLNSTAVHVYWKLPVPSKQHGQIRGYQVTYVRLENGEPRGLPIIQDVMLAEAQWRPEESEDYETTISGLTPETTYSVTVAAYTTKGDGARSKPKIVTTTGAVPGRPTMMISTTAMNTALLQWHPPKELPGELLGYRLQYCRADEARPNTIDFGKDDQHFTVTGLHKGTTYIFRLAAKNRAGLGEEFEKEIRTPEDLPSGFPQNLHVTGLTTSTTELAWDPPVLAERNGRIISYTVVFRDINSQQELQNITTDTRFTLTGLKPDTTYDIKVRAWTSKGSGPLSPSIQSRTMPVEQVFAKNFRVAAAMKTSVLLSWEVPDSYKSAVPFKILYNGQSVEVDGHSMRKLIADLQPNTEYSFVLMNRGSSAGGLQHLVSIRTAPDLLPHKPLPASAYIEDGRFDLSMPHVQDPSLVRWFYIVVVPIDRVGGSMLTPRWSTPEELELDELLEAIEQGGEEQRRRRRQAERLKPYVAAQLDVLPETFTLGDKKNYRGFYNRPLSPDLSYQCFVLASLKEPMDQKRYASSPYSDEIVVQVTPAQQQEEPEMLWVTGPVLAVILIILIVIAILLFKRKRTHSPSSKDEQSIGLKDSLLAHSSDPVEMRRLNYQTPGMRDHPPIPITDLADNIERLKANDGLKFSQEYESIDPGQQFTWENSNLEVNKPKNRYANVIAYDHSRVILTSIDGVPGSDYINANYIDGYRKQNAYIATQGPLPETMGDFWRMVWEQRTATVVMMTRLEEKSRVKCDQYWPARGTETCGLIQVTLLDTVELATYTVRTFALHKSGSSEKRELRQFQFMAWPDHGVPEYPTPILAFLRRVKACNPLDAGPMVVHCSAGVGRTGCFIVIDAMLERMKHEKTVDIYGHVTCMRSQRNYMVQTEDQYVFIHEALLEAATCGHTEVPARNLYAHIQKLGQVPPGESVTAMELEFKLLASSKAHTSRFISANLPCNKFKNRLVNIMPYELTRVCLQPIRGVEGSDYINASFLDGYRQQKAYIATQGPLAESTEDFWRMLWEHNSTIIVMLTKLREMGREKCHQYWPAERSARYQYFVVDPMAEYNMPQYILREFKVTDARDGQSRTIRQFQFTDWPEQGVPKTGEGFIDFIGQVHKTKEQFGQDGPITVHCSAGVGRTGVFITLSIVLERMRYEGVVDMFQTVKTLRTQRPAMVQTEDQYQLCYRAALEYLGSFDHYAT

How the values were obtained:
[1] = molecular target: insulin-like growth-factor-1 receptor beta subunit (IGF-1Rβ) (human) (UniProt P08069); test: the filing's summary of its co-immunoprecipitation and pulldown studies in HUVECs
[2] = molecular target: insulin-like growth-factor-1 receptor beta subunit (IGF-1Rβ) (human) (UniProt P08069); test: co-immunoprecipitation (anti-cLAR IP, anti-IGF-1Rβ blot) and GST-cLAR pulldown from HUVEC lysates
[3] = molecular target: insulin-like growth-factor-1 receptor beta subunit (IGF-1Rβ) (human) (UniProt P08069); test: co-immunoprecipitation from HUVEC lysates with or without IGF-1 (100 ng/ml, 10 min): anti-cLAR IP, anti-IGF-1Rβ Western blot

Measured: binding

leukocyte antigen-related protein tyrosine phosphatase (LAR) (from UniProt P10586 30-1907) (enzyme)
binds: all assays above
